Measurements reported in PubChem BioAssay AID485298 (National Center for Advancing Translational Sciences (NCATS), 2010).
Hit rate of the full screen: of about 320,000 compounds, about 740 (0.23%) were called active. Inconclusive results, whose numbers are uncertain, are shown with a selection of clear calls. Calls follow the shape of the dose curve; as a rule, active = well fitted activation curve with a large enough effect; inconclusive = small, poorly fitted or top-dose-only effect; inactive = no such curve, though single readings can be large or run the other way. A potency beside an inconclusive call is a rough fit, not a confirmed value. A structure can be active in one record and inactive in another.
Potency is read from the fitted curve at half-maximal effect.

Test: qHTS Assay for Small Molecule Inhibitors of Mitochondrial Division or Activators of Mitochondrial Fusion; also: nearly all actives have a fitted effect of over 45% in size; as to growth rescue (activation): % of control where 0% means no effect
Settings: S. cerevisiae fusion-defective mutant growth rescue, CellTiterGlo 48 h; growth rescue (activation): at 46.1 µM (top of the series) unless noted
Text: NIH Chemical Genomics Center [NCGC] NIH Molecular Libraries Probe Production centers Network [MLPCN] MLPCN Grant: MH081279-01 Assay Submitter (PI): Jodi M. Nunnari NCGC Assay Overview: The budding yeast S. cerevisiae is a powerful system to study mitochondrial fusion. Unlike other organisms, yeast cells without functional mitochondrial DNA (mtDNA) can be propagated and studied as long as they maintain a mitochondrial compartment and are provided with a fermentable carbon source. When mitochondrial fusion is blocked in yeast, mitochondrial tubules rapidly fragment and division continues unopposed. Under conditions where fusion is compromised in mammalian cells, nearly identical changes in mitochondrial structure have been observed. Thus, these findings indicate that steady state mitochondrial structure in cells is a characteristic and specific indicator of fusion activity. Mounting evidence has pointed to a connection between mitochondrial dynamics and apoptosis in mammalian cells. These studies indicate that in mammalian cells mitochondrial dynamics are more integrated into cellular processes than in yeast cells and have evolved not only to distribute the organelle but also to aid in the regulation of cellular homeostasis. Mitochondrial fusion proteins attenuate apoptosis by inhibiting the release of cytochrome c from mitochondria, in part by controlling cristae structures. Thus, small molecules that inhibit mitochondrial […] may promote apoptosis and potentially act as novel chemotherapeutics and stimulation of apoptosis has become an attractive target of anti-cancer therapies. To identify inhibitors of mitochondrial division, we exploit the growth phenotypes of mitochondrial fusion-defective mutants. The temperature sensitive fusion alleles, such as fzo1-1 and mgm1-5, cause mitochondrial membranes to fragment in cells under non-permissive conditions and cells lose mtDNA, and are unable to grow in the presence of non-fermentable carbon source glycerol. Inhibiting mitochondrial division rescues growth. We have developed and optimized a luminescence cell viability assay in 1536 well format for the identification of inhibitors in the yeast mitochondrial fusion-defective assay.
The yeast glycerol stocks where kindly supplied by the laboratory of Dr. Jodi Nunnari, University of California, Davis. All yeast glycerol stock solutions were stored in single use aliquots at -80C. The CellTiterGlo luminescence reagent, containing luciferase and luciferin, were purchased from Promega, and the reagents were stored according to manufacturer's instructions. The Buffer components for the YPEG yeast growth medium were purchased from Sigma-Aldrich (St. Louis, MO). YPEG growth medium: 1% (w/v) yeast extract, 2% (w/v) Bacto-peptone, 3% Ethanol, 3% glycerol, 0.4mM Tryptophan, 0.36mM Adenine. qHTS Assay Protocol: 1.#Dispense 2.5 ul yeast growth medium per 1536 well plate. 2.#Transfer 23 nl per well of compound to plate. 3.#Dispense 2.5 ul yeast solution at appropriate seeding density per well. 4.#Incubate for 48 hours at 37C. 5.#Dispense 5 ul of CellTiterGlow solution per well. 6.#Incubate at ambient for 10 minutes. 7.#Read using bio-luminescence protocol on Viewlux.
With `CCN(CC)CCNC(=O)c1ccc(NC(=O)Cc2cccc3ccccc23)cc1` the Potency was inconclusive: 35.5 µM [activator, partial curve, poor fit].
With `O=C(NNC(=O)c1ccccc1F)c1cccs1` the “growth rescue (activation)” value was inactive: 2.18%.
With `CCCCCC(=O)NC(=S)Nc1ccc(N2CCCCC2)c(Cl)c1` the “growth rescue (activation)” value was inactive: -13.9%.
In the case of `CCOC(=O)c1csc(NC(=O)COc2ccc(Cl)cc2Cl)n1`, the Potency was inconclusive: 15.8 µM [activator, single point].
For `CC(C)n1nc(C(=O)Oc2cccc(Cl)c2Cl)c2ccccc2c1=O`, the “growth rescue (activation)” value was inactive: -0.491%.
With `Cc1cc(C)nc(SCc2csc(-c3ccccc3)n2)n1` the “growth rescue (activation)” value was inactive: -2.17%.
With `CCn1cc(-c2ccnc3cc(C(=O)O)nn23)c(C)n1` the Potency was inconclusive: 35.5 µM [activator, single point].
In the case of `O=C(O)CCNC(=O)c1ccccc1`, the “growth rescue (activation)” value was inactive: -1.56%.
With `O=C(C(=O)N1CCN(c2cccc(Cl)c2)CC1)c1c[nH]c2ccccc12` the Potency was inconclusive: 17.8 µM [activator, single point].
With `O=C(NCc1ccccc1)Nc1cccn(Cc2cccc(F)c2)c1=O` the “growth rescue (activation)” value was inactive: -7.29%.
For `Cc1nn(-c2ccccc2)c(N)c1N=Nc1ccc2ccccc2c1`, the Potency was inconclusive: 20 µM [activator, single point].
For `CCOc1ccc(/C=N/OCC(=O)NC(c2ccccc2)c2ccccc2)cc1`, the Potency was inconclusive: 12.6 µM [activator, partial curve].
In the case of `Cc1cc2nc(Sc3c([N+](=O)[O-])nc(C)n3Cc3ccccc3)[nH]c2cc1C`, the “growth rescue (activation)” value was inactive: -3.93%.
In the case of `COc1ccc(NC(=O)c2ccc(-c3ccccc3C(F)(F)F)o2)cc1`, the Potency was inconclusive: 20 µM [activator, single point].
In the case of `Cc1cccc(C)c1NC(=O)CN(C)C(=O)c1ccccc1Cc1ccccc1`, the “growth rescue (activation)” value was inactive: 13.8%.
For `O=C(N/C=C/n1cnc2cc(C(F)(F)F)ccc21)c1ccccc1F`, the “growth rescue (activation)” value was inactive: 6.01%.
With `CC1(C)c2cc(Cl)ccc2-n2c1cc(O)c(-c1ccccc1)c2=O` the Potency was inconclusive: 15.8 µM [activator, single point].
In the case of `CCCC(=O)O[C@]1(C(=O)CCl)[C@@H](C)C[C@H]2[C@@H]3CCC4=CC(=O)C=C[C@]4(C)[C@@]3(F)C(=O)C[C@@]21C`, the Potency was inconclusive: 14.1 µM [activator, single point].
In the case of `CCN(CC)C(=O)c1c2c(nc3ccccc13)-c1ccccc1CC2`, the Potency was inconclusive: 15.8 µM [activator, partial curve].
With `Fc1ccc(-c2nc3ccccc3c3nc4ccccc4n23)cc1` the Potency was inconclusive: 15.8 µM [activator, single point].
For `C/C=C/c1ccc(OCCCNC)c(OC)c1`, the “growth rescue (activation)” value was inactive: 0.396%.
With `CCCc1c(-c2ccc(O)cc2)nn(-c2ccc(O)cc2)c1-c1ccc(O)cc1` the Potency was active: 16.4 µM.
With `COc1cc(OC)c(OC)cc1/C=N/NC(=S)NCCN1CCOCC1` the “growth rescue (activation)” value was inactive: -5.04%.
In the case of `C[C@@H](C(=O)NCc1ccccn1)[C@H]1C[C@]1(C)[C@H](NC(=O)OCc1ccccc1)c1ccccc1`, the Potency was inconclusive: 5.62 µM [activator, single point].
With `CC1=C(C(=O)OCc2ccccc2)C(c2ccccc2-c2ccccc2)NC(=O)N1CCCCCC(=O)O` (configuration not stated) the Potency was inconclusive: 17.8 µM [activator, single point].
For `O=C(NC(=S)N1CCN(c2ccc([N+](=O)[O-])cc2Cl)CC1)c1ccco1`, the Potency was inconclusive: 15.8 µM [activator, single point].
With `COc1cccc(C2C3=C(N=C4SCC(=O)N42)c2ccccc2CC3)c1OC` (configuration not stated) the Potency was inconclusive: 12.6 µM [activator, partial curve].
With `Cc1ccc(OC(=O)COc2ccccc2)c(-n2nc3ccccc3n2)c1` the “growth rescue (activation)” value was inactive: 2.41%.
With `CC(C)C(c1nnnn1C(C)(C)C)N1CCN(c2cccc(Cl)c2)CC1` (configuration not stated) the Potency was inconclusive: 3.55 µM [activator, partial curve].
For `Oc1ccc(Br)cc1-c1cc(-c2ccco2)[nH]n1`, the “growth rescue (activation)” value was inactive: 21.6%.
In the case of `CCOc1cccc(OCCCOc2ccccc2)c1`, the “growth rescue (activation)” value was inactive: 0.353%.
For `Cc1cc(C)c(S(=O)(=O)N2CCN(C(=O)C3COc4ccccc4O3)CC2)c(C)c1` (configuration not stated), the Potency was inconclusive: 20 µM [activator, single point].
In the case of `Cc1noc(C)c1C(=O)Nc1nc2ccccc2s1`, the “growth rescue (activation)” value was inactive: 8.41%.
In the case of `Cc1cccc(N(C)S(=O)(=O)c2nnc(NC(=O)c3ccco3)s2)c1`, the Potency was inconclusive: 2.82 µM [activator, partial curve].
With `O=C(/C=C/c1ccccc1Cl)c1ccc[nH]1` the Potency was active: 14.1 µM.
In the case of `CCOC(=O)C1=C(C)OC2(O)c3ccccc3C(=O)C12O` (configuration not stated), the “growth rescue (activation)” value was inactive: -4.27%.
For `COc1ccccc1-c1c(C)nn2c(N3CCCCCC3)cc(C)nc12`, the Potency was inconclusive: 15.8 µM [activator, single point].
With `FC(F)(F)c1cccc(Oc2nc(-c3ccccc3)nnc2C(F)(F)F)c1` the “growth rescue (activation)” value was inactive: 5.38%.
For `COC(=O)[C@@]12CCCCN1[C@H](c1ccc(-c3cccc(Cl)c3)cc1)[C@H]1C(=O)N(C)C(=O)[C@H]12`, the Potency was inconclusive: 12.6 µM [activator, partial curve].
In the case of `Cc1ccc(N2C(=O)CC(Sc3nccc(C)n3)C2=O)cc1` (configuration not stated), the “growth rescue (activation)” value was inactive: -17.1%.
For `O=C(Nc1cccc(-c2nnc(-c3ccccc3)o2)c1)C1CC1`, the “growth rescue (activation)” value was inactive: 8.79%.
With `Oc1ccc(/C=C/c2cc(O)cc(O)c2)cc1` the Potency was “inactive”.
For `COc1cc2c(cc1OC)CN(C(=O)C1CCCN1S(=O)(=O)c1ccc(F)cc1)CC2` (configuration not stated), the Potency was inconclusive: 35.5 µM [activator, partial curve].
With `O=C(Nn1c(SCc2ccc(F)cc2)nc2ccsc2c1=O)c1ccccc1` the Potency was inconclusive: 17.8 µM [activator, single point].
With `Cc1cc(Cl)ccc1NC(=S)NCCC(c1ccccc1)c1ccccc1` the Potency was inconclusive: 35.5 µM [activator, single point].
With `O=C(c1ccc2c(c1)OCO2)C1CCCN(Cc2ccc3nsnc3c2)C1` (configuration not stated) the Potency was inconclusive: 11.2 µM [activator, partial curve].
In the case of `CCCOC(=O)c1ccc(NC(=O)/C=C/c2cccs2)cc1`, the Potency was inconclusive: 35.5 µM [activator, single point].
In the case of `Cc1cc(C(=O)CSc2n[nH]c(-c3ccccc3F)n2)c(C)n1Cc1cccs1`, the Potency was inconclusive: 12.6 µM [activator, single point].
In the case of `COc1cc(OC)c2cc(C(=O)N/N=C/c3cccc(OC)c3O)[nH]c2c1`, the “growth rescue (activation)” value was inactive: 1.53%.
In the case of `O=C1NC(=O)C(Cc2cccc(Oc3ccccc3)c2)S1` (configuration not stated), the Potency was active: 11.2 µM.
With `COc1ccc(CC(=O)Nc2ccccc2N2CCCC2)cc1` the “growth rescue (activation)” value was inactive: -1.55%.
For `CCOC(=O)c1c(NC(=O)C2=C(C)NC(=S)NC2c2ccc(F)cc2)sc(C)c1C` (configuration not stated), the Potency was inconclusive: 22.4 µM [activator, single point].
In the case of `Cc1ccc(-c2nc(Nc3cccc(C)c3)sc2CC(=O)O)cc1`, the Potency was inconclusive: 14.1 µM [activator, single point].
In the case of `O=C(COc1ccc2c3c(c(=O)oc2c1)CCC3)N1CCN(c2ccc(F)cc2)CC1`, the Potency was inconclusive: 35.5 µM [activator, single point].
For `C/C(=C\CCC1(C)C2CC3C(C2)C31C)C(=O)O` (configuration not stated), the Potency was inconclusive: 17.8 µM [activator, partial curve].
With `COc1ccc(-c2c(-c3ccccc3OC)oc3ccccc23)cc1F` the Potency was inconclusive: 14.1 µM [activator, single point].
In the case of `FC(F)(F)c1nc(SCc2ccc(Cl)cc2Cl)n[nH]1`, the Potency was inconclusive: 15.8 µM [activator, single point].
With `COc1cccc(NC(=O)CN(C)C(=O)c2sc3cc(Cl)ccc3c2Cl)c1` the Potency was inconclusive: 14.1 µM [activator, single point].
With `CCOC(=O)c1cc2sccc2n1Cc1ccc(C#N)cc1` the Potency was inconclusive: 11.2 µM [activator, partial curve].
With `COc1ccc(/C=C/C(=O)Nc2ccccc2C(=O)O)cc1OC` the Potency was inconclusive: 4.61 µM [activator, full curve, poor fit].
With `O=C(Nc1ccc(N2CCN(C(=O)c3ccco3)CC2)c(Cl)c1)c1c(F)c(F)c(F)c(F)c1F` the Potency was inconclusive: 14.1 µM [activator, single point].
For `COc1ccc(NS(=O)(=O)c2cc(NC(=O)CCSc3ccccc3)ccc2OC)cc1`, the Potency was inconclusive: 25.1 µM [activator, single point].
In the case of `CCCCOC(=O)n1c(SCC(=O)N(CC)CC)nc2ccccc21`, the Potency was inconclusive: 15.8 µM [activator, partial curve].
With `O=C(CNC(=O)c1cccc(F)c1)N/N=C/c1cc(Br)ccc1OC(=O)/C=C/c1ccco1` the Potency was inconclusive: 11.2 µM [activator, partial curve].
For `Cc1cccc(NS(=O)(=O)c2ccc(C(C)(C)C)cc2)n1`, the “growth rescue (activation)” value was inactive: -1.05%.
For `COc1cc2c(cc1OC)/C(=C/c1ccc(Cl)cc1)C(=O)OC2`, the Potency was inconclusive: 8.91 µM [activator, partial curve].
In the case of `COc1ccc(-c2nn(-c3ccccc3)cc2/C=N/Nc2ccc3ccccc3n2)cc1OC`, the Potency was inconclusive: 22.4 µM [activator, single point].
With `O=C(Nc1cc(=O)c2ccccc2o1)N1CCCCC1` the Potency was inconclusive: 20 µM [activator, single point].
In the case of `CCc1nc(-c2cc3ccc(C)cc3[nH]c2=O)no1`, the Potency was inconclusive: 2.51 µM [activator, partial curve].
With `O=C(CSCc1cccc(Br)c1)N=Nc1c(O)[nH]c2ccccc12` the “growth rescue (activation)” value was inactive: -1.34%.
With `CN(CC(=O)Nc1ccc(F)cc1)C(=O)c1cn(-c2ccccc2)nc1-c1cccs1` the Potency was inconclusive: 20 µM [activator, single point].
For `CCOc1cc(CNc2ccc(O)cc2)ccc1OCc1ccc(Cl)cc1Cl`, the Potency was inconclusive: 15.8 µM [activator, single point].
